In patent US20260250769:

Biological target: DUX4-fl (Homo sapiens) (UniProt Q9UBX2)
Assay: activity in cells
Settings: RD cells, protein in cells, protein details: pCS2 or lentiviral expression
[1] = luciferase, pGL3-promoter, transcription activated, only the site is given

Row | Sequence | activity on this sequence [1] | activity on this sequence (1.9 kb ZSCAN4 enhancer/promoter containing these sites, pGL3-basic)
1 | AGGAGTGATGATAATTTAATCAGCCGTGCAA (double strand) [TRIM48 reporter site] | active | –
2 | AGTAATTCAATCAACAGACAAGTGTTATCCAATCACGTCTTTAAATCAATCACTGACATGGAGCTGGGGCTGGATGAAGATTCCATCAGTAATTCAATCAACAGACAAGTGTTATCCAATCACGTCTTTAAATCAATCACT (double strand) [ZSCAN4 enhancer DUX4 sites] | – | active
3 | AATCACGTCTTTAAATCAATCACTGACATGG (double strand) [ZSCAN4 reporter site] | active | –
